Laboratory results from patent US20180185374A1, “INHIBITORS OF MTOR KINASE AS ANTI-VIRAL AGENTS” (THE TRUSTEES OF PRINCETON UNIVERSITY, priority 2009, published 2018).
At least one compound was matched to its structure with a doubt left.

Columns and labels:
rpS6 [1] = test: rpS6 phosphorylation in HCMV-infected fibroblasts, Western blot; format: cell-based, human; settings: rapamycin 20 nM, Torin1 250 nM; 3 PFU/cell
Description: (§1) FIG. 4. Rapamycin-resistant mTOR activity is required for 4EBP1 phosphorylation and eIF4F complex integrity during HCMV infection. Serum-starved confluent human fibroblasts were infected with HCMV at a multiplicity of 3 PFU/cell. […] (A) At 48 hpi the phosphorylation status of mTORC1 targets was assessed by Western blot assay by using antibodies to phosphorylated targets (4EBP1-PT^37/46 and rpS6-PS^235/6) and total proteins. Tubulin was assayed as a loading control. (B) Same as above (A) except that cells were harvested at the indicated times. (C and D) After mock infection (M) or infection with HCMV (WT) at a multiplicity of 3 PFU/cell, cultures were harvested at the indicated times. Equivalent amounts of protein from each sample were incubated with m^7GTP-Sepharose, and the isolated protein complexes were analyzed by Western blotting using the indicated antibodies to the eIF4F complex and 4EBP1. In all cases the results are representative of at least two independent experiments. lys, lysate.
(§2) HCMV infection induces mTORC1 activity, but the phosphorylation of mTORC1 targets is differentially sensitive to the mTORC1 inhibitor rapamycin. […] Total 4EBP1, rpS6, and tubulin levels were monitored to control for protein recovery. […]

γHV68 = γHV68 replication in MEFs, TCID50; format: cell-based, murine gammaherpesvirus 68; settings: 0.05 PFU/cell, 6 days post infection, rapamycin 20 nM, Torin1 250 nM
HCMV = test: UL99 late transcript level by qPCR; format: cell-based, human cytomegalovirus; settings: rapamycin 20 nM, Torin1 250 nM; 3 PFU/cell
4EBP1 [2] = test: 4EBP1 phosphorylation in HCMV-infected fibroblasts, Western blot; format: cell-based, human; settings: rapamycin 20 nM, Torin1 250 nM; 3 PFU/cell
Description: as §1, §2

rpS6 [3] = test: rpS6 phosphorylation in MCMV-infected MEFs, Western blot; format: cell-based, mouse; settings: 48 hpi; rapamycin 20 nM, Torin1 250 nM, LY294002 20 μM
Description: (§3) FIG. 5. […] Fresh serum-free medium containing drugs was added every other day. At the indicated times, cell-free supernatants were harvested, and the amount of virus in the supernatant was quantified by the TCID50 method. Error bars represent the standard errors of the means form two independent experiments performed in duplicate. […] At 48 hpi the phosphorylation state of the indicated mTORC1 targets was analyzed by a Western blot assay by using antibodies to phosphorylated targets (4EBP1-PT^37/46 and rpS6-PS^235/6) and total proteins. The results are representative of three independent experiments.
The identification of the functional roles of proteins in the mTOR signaling pathway has been facilitated by the generation of knockout mouse strains lacking individual mTOR components. For example, the availability of murine embryonic fibroblasts (MEFs) lacking the essential mTORC2 component Rictor led to the definitive identification of mTORC2 as the kinase complex responsible for the complete activation of Akt. We used murine cytomegalovirus (MCMV) and several MEF lines deficient for mTOR signaling pathway components to test for a possible contribution of mTORC2 to rapamycin-resistant phosphorylation events. […] Also as observed for HCMV (FIG. 4A), MCMV infection induced mTORC1 activity, as measured by the increased phosphorylation of rpS6. […]

MCMV = MCMV replication in MEFs, cell-free virus by TCID50; format: cell-based, murine cytomegalovirus; settings: 4EBP1-null MEFs; rapamycin 20 nM, Torin1 250 nM; 6 days post infection
HSV-1 = HSV-1 replication in MEFs, TCID50; format: cell-based, herpes simplex virus type 1; settings: 0.05 PFU/cell, 72 hpi, rapamycin 20 nM, Torin1 250 nM
eIF4F complex = test: m7GTP-Sepharose cap-binding assay, HCMV-infected fibroblasts; format: cell-based, human; settings: rapamycin 20 nM, Torin1 250 nM
Description: as §1
The phosphorylation status of 4EBP1 regulates cap-dependent protein translation. Hypophosphorylated 4EBP1 binds to eIF4E and inhibits the formation of the eIF4F complex, while the phosphorylation of 4EBP1 inhibits its interaction with eIF4E. […]

4EBP1 [4] = test: 4EBP1 phosphorylation in MCMV-infected MEFs, Western blot; format: cell-based, mouse; settings: wild-type MEFs; 48 hpi; rapamycin 20 nM, Torin1 250 nM, LY294002 20 μM
Description: as §3
FIG. 6. mTORC2 and its target, Akt, are not the source of rapamycin-resistant mTOR activity. […] At 6 days post infection the amount of MCMV in cell-free supernatants was determined by the TCID50 method. […] At 48 hpi, the phosphorylation state of mTORC1 targets was assessed by Western blotting using antibodies specific for the indicated proteins. […] Protein from wild-type or mutant MEFs was analyzed by Western blotting by use of an antibody specific for Akt.
The identification of the functional roles of proteins in the mTOR signaling pathway has been facilitated by the generation of knockout mouse strains lacking individual mTOR components. […] Also as observed for HCMV (FIG. 4A), MCMV infection induced mTORC1 activity, as measured by the increased phosphorylation of rpS6. […]

| SMILES | induction of rpS6 phosphorylation during HCMV infection (rpS6 [1]) | γHV68 replication (γHV68) | levels of UL99 mRNA (HCMV) | phosphorylation of 4EBP1 during HCMV infection (4EBP1 [2]) | phosphorylation of rpS6 in MCMV-infected MEFs (rpS6 [3]) | MCMV replication (MCMV) | HSV-1 replication (HSV-1) | association of 4EBP1 with m7GTP-Sepharose (eIF4F complex) | association of eIF4G and eIF4A with the cap analog (eIF4F complex) | phosphorylation of 4EBP1 in MCMV-infected MEFs (4EBP1 [4]) |
| --- | --- | --- | --- | --- | --- | --- | --- | --- | --- | --- |
| CO[C@H]1C[C@@H]2CC[C@@H](C)[C@@](O)(O2)C(=O)C(=O)N2CCCC[C@H]2C(=O)O[C@H]([C@H](C)C[C@@H]2CC[C@@H](O)[C@H](OC)C2)CC(=O)[C@H](C)/C=C(\C)[C@@H](O)[C@@H](OC)C(=O)[C@H](C)C[C@H](C)/C=C/C=C/C=C/1C [rapamycin] | markedly inhibited | ineffective | decreased the levels of UL99 mRNA | inability to block 4EBP1 phosphorylation | completely inhibited | minimal impact | ineffective | did not increase | minimal effects | – |
| O=c1cc(N2CCOCC2)oc2c(-c3ccccc3)cccc12 [LY294002] | – | – | – | – | completely inhibited | – | – | – | – | inhibited |
